Laboratory results: the supplement of paper PMC5949888
Most values lie at the floor of the assay. Slopes are relative: functional sequences can read slightly below zero.

System: Saccharomyces cerevisiae PS128 hsf1 delta, HSF1(1-493) fusion
Experiment: growth estimate (transactivation domain function in HSF1 fusion, heat-shock survival) (a.u. (slope of normalised read count over time)); higher = stronger growth at 37°C, i.e. more transactivation activity
Conditions: library: random library

| Substance | growth estimate |
| --- | --- |
| MGLGITSFAVPG | < -0.25 |
| YVRTGF | < -0.25 |
| IDIGRCEGRPARFQSPQCSG | < -0.25 |
| KSPFIDGLCSGSAHEGESFD | < -0.25 |
| GEHGRCECLGSLTHHDPERY | < -0.25 |
| GSATSIVM | -0.199 |
| LGCFAGFIIGAKVLRGEEHI | < -0.25 |
| KSQRMS | < -0.25 |
| EKFVVSIAYK | < -0.25 |
| TAIGGHIDQSVNNSAGSGA | < -0.25 |
| FPAGPVRARSQAVLNLGPYV | < -0.25 |
| QVSVTWSFGCLLEFADFKVH | -0.157 |
| ADRRS | < -0.25 |
| VRGDTPRALAIERNRSDARS | < -0.25 |
| EGPVDGVGR | < -0.25 |
| GSSSARKGG | < -0.25 |
| SSGKPLRSGRATSCCIGGPS | < -0.25 |
| SSRKYTLAIRRGSDFAIPGP | < -0.25 |
| CYFQHVDYEY | < -0.25 |
| YSRIQA | < -0.25 |
| IDPSGMHVGSV | < -0.25 |
| QSYPSSQLFIQFAIK | < -0.25 |
| GLRGEGLSLRR | < -0.25 |

| Substance | growth estimate |
| --- | --- |
| RTRNPPRNAQRLPNVRRLLG | < -0.25 |
| RVNSIALLHKRVCTTCVYLS | < -0.25 |
| KCGVDRQAFRRCFRISPPST | < -0.25 |
| LHWATAVRTGETVNCGYGTE | < -0.25 |
| GASLTASSGREFTTRGSSLI | < -0.25 |
| WSVASSVATMG | < -0.25 |
| RDRAIPLRVPNSPWTAE | < -0.25 |
| ATSI | < -0.25 |
| RQS | < -0.25 |
| WLLTICVHLSR | < -0.25 |
| LLGCFV | < -0.25 |
| RLEVINVGFLKGWVQASQTI | < -0.25 |
| PNGN | < -0.25 |
| LQAIVLTV | < -0.25 |
| RRRVPAD | < -0.25 |
| QLEKRNLVCEL | -0.243 |
| HERSRCP | < -0.25 |
| PAYDGQCSRGLEADEYMPVA | < -0.25 |
| CQNHYHSSGCLSINYLQLRA | < -0.25 |
| GFHVCATWYGRRTCAWDGLQ | < -0.25 |
| YRIGLHDDRLLSLIGPHSAL | < -0.25 |
| GRP | < -0.25 |
| RQWAA | < -0.25 |

Individual results from the list.
In growth estimate, QLEKRNLVCEL reads -0.243
In growth estimate, LLGCFV reads < -0.25
In growth estimate, YRIGLHDDRLLSLIGPHSAL reads < -0.25
In growth estimate, RDRAIPLRVPNSPWTAE reads < -0.25

In a second layout: entries from further up
Substance	growth estimate
RRRVPAD	< -0.25
QLEKRNLVCEL	-0.243
HERSRCP	< -0.25

Remaining list, next part

| Substance | growth estimate |
| --- | --- |
| SDVSVVPTLAQLG | < -0.25 |
| WIS | < -0.25 |
| CFATCLVWRVE | < -0.25 |
| VRLGKSVRFAQR | < -0.25 |
| HGMVSKEAV | < -0.25 |
| AEV | < -0.25 |
| SRITETWTSCDQP | < -0.25 |
| SYFNALRLIWQEIGTY | < -0.25 |
| SCQPIYQHLESHTRC | < -0.25 |
| RCRYGVERSGQIEQMLCRSV | < -0.25 |
| RITFCAHVPVNMLTFSVSEA | < -0.25 |
| YCSVFRCREPGVFCHPTPFA | < -0.25 |
| PGPSLEVLAQ | < -0.25 |
| SGSHGP | < -0.25 |
| KVISLGNILKLP | < -0.25 |
| WGIPDDTGFSTLSRRLPCYP | < -0.25 |
| ESAHGQGEIPGFRNDRVSRV | < -0.25 |
| IPVLDE | < -0.25 |
| PGA | < -0.25 |
| QSKACVRRELGAVRIGLFHA | < -0.25 |
| RPIYP | < -0.25 |
| TEGAPRTTCLEDLVSTSTHL | < -0.25 |
| VGHGEASAQSGGGNSLNSAR | < -0.25 |

| Substance | growth estimate |
| --- | --- |
| GGDSTFLALIRVESKNLWKR | < -0.25 |
| RGSESIINVLTSPAQKPKRA | < -0.25 |
| CFVQQGGDCLVHLLLNVILR | < -0.25 |
| WQLTPAGPHALSTWCRPSER | < -0.25 |
| NLTQLYSHETGQKVD | < -0.25 |
| FRSSGGPWGSRGIKSSALQC | < -0.25 |
| VNA | < -0.25 |
| MNHNGLISRFTGKI | < -0.25 |
| SELSS | < -0.25 |
| DETADSGRRCGPLVRSISRH | < -0.25 |
| ATERFFRQTSSIIAFSH | < -0.25 |
| RTGLLEECRSCPMPHLGVSQ | < -0.25 |
| RSSAVSEFFARLSSGRASPT | < -0.25 |
| LLRPWGTRLE | < -0.25 |
| DQLGNSG | < -0.25 |
| QLWSRKVRMLNRRERAGINF | < -0.25 |
| KIVLRGGIPVSCP | < -0.25 |
| SVGCAMACAPGRKDRYHTRT | < -0.25 |
| FSYGSAYYQCDLSEPEHTRR | < -0.25 |
| ENRDVALRPIVVFGGLGCS | < -0.25 |
| SNPT | < -0.25 |
| YCRGAVGPLTAQRSLCPDLV | < -0.25 |
| LSSKKCRQSRYRTQSPGPSE | < -0.25 |

| Substance | growth estimate |
| --- | --- |
| VREMSN | < -0.25 |
| VYTTRLCLSYRVL | < -0.25 |
| KPAVQAARGANSWMAPCYRC | < -0.25 |
| SCGSVG | < -0.25 |
| FFVRKVTDIGVMVQV | < -0.25 |
| SMGTLVHWG | < -0.25 |
| VPPLRIRPLIIRAVIRGGYI | -0.203 |
| LNRR | < -0.25 |
| DYIYGKGPSLLNTDEVQTQR | < -0.25 |
| VYQWSHYGVVSSVVVFGTSV | < -0.25 |
| RVEHLDGQRSTACCMSSALA | < -0.25 |
| PPSPERL | < -0.25 |
| WTSFAKAILITKSQKYGRTP | < -0.25 |
| PQCGLTLSF | < -0.25 |
| EHGQSRRRTL | < -0.25 |
| LDTGR | < -0.25 |
| HTCQGDARRSWCKGKKRRSV | < -0.25 |
| FGRGHCGL | < -0.25 |
| ALLGSRVIGDFNSGHW | < -0.25 |
| LTVRHGSLAVRRLNAIAALT | < -0.25 |
| DSTSLGHRSAFRTRCRRRDT | < -0.25 |
| NRSPYDGP | < -0.25 |
| SGRYDLPATPWR | < -0.253 |

| Substance | growth estimate |
| --- | --- |
| SMEYYASR | < -0.25 |
| FFNSISLTVERIEAWDSSDA | < -0.25 |
| FRAKPPSGPAYRTLLIVGVW | < -0.25 |
| KDEEHDG | < -0.25 |
| AGDDKTCRGPRRPSVCMQSC | < -0.25 |
| RHSQS | -0.228 |
| CKLGNGYFPTT | < -0.25 |
| HNVTAA | < -0.25 |
| VGITSGLGRFNRQSIRVSCD | < -0.25 |
| KARDSSLRTSREP | < -0.25 |
| PGTMSAGDF | < -0.25 |
| ESSGGTGTKFSRHTVSVT | < -0.25 |
| DLYMTTTSWSPLELLRTQKV | < -0.25 |
| CHGV | < -0.25 |
| VVVVVEN | < -0.25 |
| YGKSSECRSFRMWGSSLQSV | < -0.25 |
| SRVFLTRR | < -0.25 |
| WRSGATLDTSIPISIVANSA | < -0.25 |
| VRSLLPAITTRDFVEEPASP | -0.248 |
| EKSCAFVPVTVKRMPCESSD | < -0.25 |
| ASERW | < -0.25 |
| DWLTIWCARAETSVSRPDPW | < -0.25 |
| PSEARRETKSGFTPSVSRHR | < -0.25 |

| Substance | growth estimate |
| --- | --- |
| GSSNELSQKYGSYNSEVCRT | < -0.25 |
| LVGPVGLCNYIRLSTGLCQI | 0.139 |
| IFCEERPSI | < -0.25 |
| WGQNRRAIHIRHRADA | < -0.25 |
| VIVSIFGGVDWYRITGDRNP | < -0.25 |
| LIVDRHHRLTVDDVIREPWM | < -0.25 |
| LEPPRG | < -0.25 |
| DLDCRYDHSNIVVGCSAGKH | < -0.25 |
| DRAAIWLYGRFSTDSARLV | 0.183 |
| GWCRRRINRLEWPPIPNRSS | < -0.25 |
| LAIRALVRVIVRVGGEVVAQ | < -0.25 |
| TGPPSREHCGKAAQPGDKWP | < -0.25 |
| SRPER | < -0.25 |
| YASVSRVVYPYVGGIVHEYG | < -0.25 |
| GGRYRSIEAFPVRDLVPISR | < -0.25 |
| VNCSVYVWLS | < -0.25 |
| RALSAFPAYPIHVSLSKVKE | < -0.25 |
| LSMPSAVPKQGTVHRVHVVA | < -0.25 |
| MSSTLGVGLKTLYGNCRLHW | < -0.25 |
| APSERTAGQWEPWTRLRREG | < -0.25 |
| PGGANGAREYASLSLQGPVS | < -0.25 |
